Results taken from paper PMC9700037.
Numbering of substitutions follows the chain as printed. These are yes or no findings as the source states them, for the method shown. In cells and extracts the contact can be indirect. Binding calls can cover weak binding; strength is not graded here.

Key:
NLRP1-FIIND (wt) (human) = target: T1, NLRP1-FIIND (wt) (human) (UniProt Q9C000); assay: pull-down; GST pull-down of GST-tev-FIIND from Sf9 cells co-infected with His6-DPP9 (with or without SUMO-UPA); released from the beads by TEV; SDS-PAGE
T1 sequence: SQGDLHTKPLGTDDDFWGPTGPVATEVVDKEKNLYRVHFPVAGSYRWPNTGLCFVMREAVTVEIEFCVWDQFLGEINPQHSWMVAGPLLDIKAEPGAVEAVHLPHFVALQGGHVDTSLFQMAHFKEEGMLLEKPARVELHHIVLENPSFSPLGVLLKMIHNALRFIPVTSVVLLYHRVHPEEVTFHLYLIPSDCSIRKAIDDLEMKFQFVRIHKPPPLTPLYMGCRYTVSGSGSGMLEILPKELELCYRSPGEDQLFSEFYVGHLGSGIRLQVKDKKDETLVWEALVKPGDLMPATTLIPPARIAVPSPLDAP

[1] = target: T2, NLRP1-FIIND (M1184V) (human) (UniProt Q9C000); assay: as above
T2 sequence: T1 sequence with M121V

binding (NLRP1-FIIND (wt) (human)): binds
binding [1]: binds
Substance: free UPA domain (from the SUMO-UPA construct) (human) (domain or fragment)
